The list shows a part of the results, in another mix than the full data. At the low end of the ranking the order means little.
Target: T1, GABPA (UniProt Q06546)
T1 sequence: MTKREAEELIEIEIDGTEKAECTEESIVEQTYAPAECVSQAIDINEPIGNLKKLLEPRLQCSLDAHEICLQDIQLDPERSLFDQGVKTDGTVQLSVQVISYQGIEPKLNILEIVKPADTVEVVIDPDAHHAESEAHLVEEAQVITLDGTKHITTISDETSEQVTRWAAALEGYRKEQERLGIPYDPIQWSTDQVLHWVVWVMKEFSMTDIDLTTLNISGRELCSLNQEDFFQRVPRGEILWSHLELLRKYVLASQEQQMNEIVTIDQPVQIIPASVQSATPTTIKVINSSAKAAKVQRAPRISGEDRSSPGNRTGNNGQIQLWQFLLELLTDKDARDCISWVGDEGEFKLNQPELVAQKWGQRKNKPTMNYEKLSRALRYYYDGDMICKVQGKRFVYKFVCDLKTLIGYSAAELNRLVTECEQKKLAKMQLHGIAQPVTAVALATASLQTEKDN
Assay: DAPPL (digital affinity profiling via proximity ligation, sequencing)
Details: 10 mM Tris-HCl pH 7.5, 50 mM NaCl, 1 mM DTT, 4% glycerol, room temperature, 30 min; GST-TFs on glutathione beads, 16-mer random dsDNA library, 0.1% …; high values mean tight binding; double strand, one strand shown; scale: fold enrichment (6-mer frequency, TF over GST control)

Sequence	binding signal
ACTACT	1.28
TTCACC	1.34
CCGGAA	4.9
GAACCC	1.16
TGGCAA	1.22
CCTGGT	1.4
ACAGAT	0.987
GGCTCT	1.23
CGCTTC	1.99
GTATAT	1.13
CTAGTT	1.42
ATGAGC	1.33
AACCTC	1.28
GTGGCT	1.27
CTTGGG	1.36
GCCTCC	1.23
CGATCT	1.29
ACCGAT	1.2
CTATAT	1.35
GATGGT	1.16

Sequence	binding signal
GATATA	1.15
TGTGGA	1.06
TAGTCC	1.12
CTGGAC	1.17
ATCTTC	1.48
CGCTCA	1.16
TGCCAA	1.06
CATGAA	1.03
TTAAGT	1.16
TTTAAA	1.19
AGCTAA	0.959
ATTGAT	1.39
CATCGA	0.979
ACCACT	1.35
TACCCG	1.51
TCTAGT	1.17
AATCCC	1.38
CGATAC	1.27
TTATTG	1.28
ACTTTT	1.34

Three neighbouring records already listed:
Sequence	binding signal
TGTGGA	1.06
TAGTCC	1.12
CTGGAC	1.17
